B1: 14L 31W 117V 72A (protein, listed as Rattus norvegicus)
chain: AFDGTWKVDRNENLEKFMEKMGINVVKRKLWAHDNLKLTITQEGNKFTVKESSNFRNIDVVFELGVDFAYSAADGTELTGTWTMEGNKLVGKFKRVDNGKELIAVREISGNELIQTVTYEGVEAKRIFKKE
modifications: PEPTIDE (1)...(131) wild-type rat intestinal fatty acid binding protein
B2: 18I 55G 73M 72A (protein, listed as Rattus norvegicus)
chain: AFDGTWKVDRNENYEKFIEKMGINVVKRKLGAHDNLKLTITQEGNKFTVKESSNGRNIDVVFELGVDFAYSAMDGTELTGTWTMEGNKLVGKFKRVDNGKELIAVREISGNELIQTYTYEGVEAKRIFKKE
modifications: PEPTIDE (1)...(131) wild-type rat intestinal fatty acid binding protein
B3: 18V 31Y 55I 73G 72A (protein, listed as Rattus norvegicus)
chain: AFDGTWKVDRNENYEKFVEKMGINVVKRKLYAHDNLKLTITQEGNKFTVKESSNIRNIDVVFELGVDFAYSAGDGTELTGTWTMEGNKLVGKFKRVDNGKELIAVREISGNELIQTYTYEGVEAKRIFKKE
modifications: PEPTIDE (1)...(131) wild-type rat intestinal fatty acid binding protein
B4: 14Q 18S 73I 117W 72A (protein, listed as Rattus norvegicus)
chain: AFDGTWKVDRNENQEKFSEKMGINVVKRKLGAHDNLKLTITQEGNKFTVKESSNFRNIDVVFELGVDFAYSAIDGTELTGTWTMEGNKLVGKFKRVDNGKELIAVREISGNELIQTWTYEGVEAKRIFKKE
modifications: PEPTIDE (1)...(131) wild-type rat intestinal fatty acid binding protein
B5: 119M, 72A (protein, listed as Rattus norvegicus)
chain: AFDGTWKVDRNENYEKFMEKMGINVVKRKLGAHDNLKLTITQEGNKFTVKESSNFRNIDVVFELGVDFAYSAADGTELTGTWTMEGNKLVGKFKRVDNGKELIAVREISGNELIQTYTMEGVEAKRIFKKE
modifications: PEPTIDE (1)...(131) wild-type rat intestinal fatty acid binding protein
B6: 78F, 72A (protein, listed as Rattus norvegicus)
chain: AFDGTWKVDRNENYEKFMEKMGINVVKRKLGAHDNLKLTITQEGNKFTVKESSNFRNIDVVFELGVDFAYSAADGTEFTGTWTMEGNKLVGKFKRVDNGKELIAVREISGNELIQTYTYEGVEAKRIFKKE
modifications: PEPTIDE (1)...(131) wild-type rat intestinal fatty acid binding protein
B7: 14M 72M 117A (protein, listed as Rattus norvegicus)
chain: AFDGTWKVDRNENMEKFMEKMGINVVKRKLGAHDNLKLTITQEGNKFTVKESSNFRNIDVVFELGVDFAYSMADGTELTGTWTMEGNKLVGKFKRVDNGKELIAVREISGNELIQTATYEGVEAKRIFKKE
modifications: PEPTIDE (1)...(131) wild-type rat intestinal fatty acid binding protein
B8: 38M, 72A (protein, listed as Rattus norvegicus)
chain: AFDGTWKVDRNENYEKFMEKMGINVVKRKLGAHDNLKMTITQEGNKFTVKESSNFRNIDVVFELGVDFAYSAADGTELTGTWTMEGNKLVGKFKRVDNGKELIAVREISGNELIQTYTYEGVEAKRIFKKE
modifications: PEPTIDE (1)...(131) wild-type rat intestinal fatty acid binding protein
B9: 18G 31F 73L 72A (protein, listed as Rattus norvegicus)
chain: AFDGTWKVDRNENYEKFGEKMGINVVKRKLFAHDNLKLTITQEGNKFTVKESSNFRNIDVVFELGVDFAYSALDGTELTGTWTMEGNKLVGKFKRVDNGKELIAVREISGNELIQTYTYEGVEAKRIFKKE
modifications: PEPTIDE (1)...(131) wild-type rat intestinal fatty acid binding protein
B10: 104N, 72A (protein, listed as Rattus norvegicus)
chain: AFDGTWKVDRNENYEKFMEKMGINVVKRKLGAHDNLKLTITQEGNKFTVKESSNFRNIDVVFELGVDFAYSAADGTELTGTWTMEGNKLVGKFKRVDNGKELINVREISGNELIQTYTYEGVEAKRIFKKE
modifications: PEPTIDE (1)...(131) wild-type rat intestinal fatty acid binding protein
B11: 38Q, 72A (protein, listed as Rattus norvegicus)
chain: AFDGTWKVDRNENYEKFMEKMGINVVKRKLGAHDNLKQTITQEGNKFTVKESSNFRNIDVVFELGVDFAYSAADGTELTGTWTMEGNKLVGKFKRVDNGKELIAVREISGNELIQTYTYEGVEAKRIFKKE
modifications: PEPTIDE (1)...(131) wild-type rat intestinal fatty acid binding protein
B12: 38T, 72A (protein, listed as Rattus norvegicus)
chain: AFDGTWKVDRNENYEKFMEKMGINVVKRKLGAHDNLKTTITQEGNKFTVKESSNFRNIDVVFELGVDFAYSAADGTELTGTWTMEGNKLVGKFKRVDNGKELIAVREISGNELIQTYTYEGVEAKRIFKKE
modifications: PEPTIDE (1)...(131) wild-type rat intestinal fatty acid binding protein
B13: 62P, 72A (protein, listed as Rattus norvegicus)
chain: AFDGTWKVDRNENYEKFMEKMGINVVKRKLGAHDNLKLTITQEGNKFTVKESSNFRNIDVVPELGVDFAYSAADGTELTGTWTMEGNKLVGKFKRVDNGKELIAVREISGNELIQTYTYEGVEAKRIFKKE
modifications: PEPTIDE (1)...(131) wild-type rat intestinal fatty acid binding protein
B14: 31Q, 72A (protein, listed as Rattus norvegicus)
chain: AFDGTWKVDRNENYEKFMEKMGINVVKRKLQAHDNLKLTITQEGNKFTVKESSNFRNIDVVFELGVDFAYSAADGTELTGTWTMEGNKLVGKFKRVDNGKELIAVREISGNELIQTYTYEGVEAKRIFKKE
modifications: PEPTIDE (1)...(131) wild-type rat intestinal fatty acid binding protein
B15: 38S, 72A (protein, listed as Rattus norvegicus)
chain: AFDGTWKVDRNENYEKFMEKMGINVVKRKLGAHDNLKSTITQEGNKFTVKESSNFRNIDVVFELGVDFAYSAADGTELTGTWTMEGNKLVGKFKRVDNGKELIAVREISGNELIQTYTYEGVEAKRIFKKE
modifications: PEPTIDE (1)...(131) wild-type rat intestinal fatty acid binding protein
B16: 14W 72M 117A (protein, listed as Rattus norvegicus)
chain: AFDGTWKVDRNENWEKFMEKMGINVVKRKLGAHDNLKLTITQEGNKFTVKESSNFRNIDVVFELGVDFAYSMADGTELTGTWTMEGNKLVGKFKRVDNGKELIAVREISGNELIQTATYEGVEAKRIFKKE
modifications: PEPTIDE (1)...(131) wild-type rat intestinal fatty acid binding protein
B17: 36V, 72A (protein, listed as Rattus norvegicus)
chain: AFDGTWKVDRNENYEKFMEKMGINVVKRKLGAHDNVKLTITQEGNKFTVKESSNFRNIDVVFELGVDFAYSAADGTELTGTWTMEGNKLVGKFKRVDNGKELIAVREISGNELIQTYTYEGVEAKRIFKKE
modifications: PEPTIDE (1)...(131) wild-type rat intestinal fatty acid binding protein
B18: 36I, 72A (protein, listed as Rattus norvegicus)
chain: AFDGTWKVDRNENYEKFMEKMGINVVKRKLGAHDNIKLTITQEGNKFTVKESSNFRNIDVVFELGVDFAYSAADGTELTGTWTMEGNKLVGKFKRVDNGKELIAVREISGNELIQTYTYEGVEAKRIFKKE
modifications: PEPTIDE (1)...(131) wild-type rat intestinal fatty acid binding protein
B19: 23W, 72A (protein, listed as Rattus norvegicus)
chain: AFDGTWKVDRNENYEKFMEKMGWNVVKRKLGAHDNLKLTITQEGNKFTVKESSNFRNIDVVFELGVDFAYSAADGTELTGTWTMEGNKLVGKFKRVDNGKELIAVREISGNELIQTYTYEGVEAKRIFKKE
modifications: PEPTIDE (1)...(131) wild-type rat intestinal fatty acid binding protein
B20: 31V, 72A (protein, listed as Rattus norvegicus)
chain: AFDGTWKVDRNENYEKFMEKMGINVVKRKLVAHDNLKLTITQEGNKFTVKESSNFRNIDVVFELGVDFAYSAADGTELTGTWTMEGNKLVGKFKRVDNGKELIAVREISGNELIQTYTYEGVEAKRIFKKE
modifications: PEPTIDE (1)...(131) wild-type rat intestinal fatty acid binding protein
B21: 31I, 72A (protein, listed as Rattus norvegicus)
chain: AFDGTWKVDRNENYEKFMEKMGINVVKRKLIAHDNLKLTITQEGNKFTVKESSNFRNIDVVFELGVDFAYSAADGTELTGTWTMEGNKLVGKFKRVDNGKELIAVREISGNELIQTYTYEGVEAKRIFKKE
modifications: PEPTIDE (1)...(131) wild-type rat intestinal fatty acid binding protein
B22: 14L 18L 31Y 73L 117A 72A (protein, listed as Rattus norvegicus)
chain: AFDGTWKVDRNENLEKFLEKMGINVVKRKLYAHDNLKLTITQEGNKFTVKESSNFRNIDVVFELGVDFAYSALDGTELTGTWTMEGNKLVGKFKRVDNGKELIAVREISGNELIQTATYEGVEAKRIFKKE
modifications: PEPTIDE (1)...(131) wild-type rat intestinal fatty acid binding protein
B23: 18I 31F 73V 72A (protein, listed as Rattus norvegicus)
chain: AFDGTWKVDRNENYEKFIEKMGINVVKRKLFAHDNLKLTITQEGNKFTVKESSNFRNIDVVFELGVDFAYSAVDGTELTGTWTMEGNKLVGKFKRVDNGKELIAVREISGNELIQTYTYEGVEAKRIFKKE
modifications: PEPTIDE (1)...(131) wild-type rat intestinal fatty acid binding protein

Assay: Baseline fluorescence ratio Ro of probe in absence of analyte
Conditions: baseline fluorescence ratio of probe

Q: With B1 as the molecule, how does the Ro read?
A: 0.259

Q: Which Ro does the source give for B2 here?
A: 0.303

Q: Which Ro does the source give for B3 here?
A: 0.383

Q: With B4 as the molecule, how does the Ro read?
A: 0.487

Q: For B5, which Ro is on record?
A: 0.343

Q: For B6, which Ro is on record?
A: 0.219

Q: Which Ro does the source give for B7 here?
A: 0.305

Q: For B8, which Ro is on record?
A: 0.261

Q: With B9 as the molecule, how does the Ro read?
A: 0.225

Q: For B10, which Ro is on record?
A: 0.396

Same assay, conditions: baseline fluorescence ratio of probe, no fatty acid

Q: With B1 as the molecule, how does the Ro read?
A: 0.259

Q: For B3, which Ro is on record?
A: 0.383

Q: With B4 as the molecule, how does the Ro read?
A: 0.487

Q: Which Ro does the source give for B11 here?
A: 0.204

Q: With B12 as the molecule, how does the Ro read?
A: 0.297

Q: For B13, which Ro is on record?
A: 0.216

Q: With B14 as the molecule, how does the Ro read?
A: 0.376

Q: With B15 as the molecule, how does the Ro read?
A: 0.311

Q: For B16, which Ro is on record?
A: 0.322

Q: Which Ro does the source give for B17 here?
A: 0.330

Q: For B18, which Ro is on record?
A: 0.250

Q: With B19 as the molecule, how does the Ro read?
A: 0.449

Q: For B20, which Ro is on record?
A: 0.613

Q: For B21, which Ro is on record?
A: 0.680

Q: Which Ro does the source give for B10 here?
A: 0.396

Q: For B22, which Ro is on record?
A: 0.581

Q: With B23 as the molecule, how does the Ro read?
A: 0.355

Source: patent US20060257938A1, “Method of screening for drugs that block ligand binding to a lipid binding protein” (priority 2005, published 2006)
